Test results published in PMC10697876.
Results are given in words; binding and its absence hold for the method and conditions named. In cells and extracts the contact can be indirect. Some entries that bind do so weakly or less than the wild type.

Amino acid sequences for entries named in this document (tags omitted).
UniProt O88569: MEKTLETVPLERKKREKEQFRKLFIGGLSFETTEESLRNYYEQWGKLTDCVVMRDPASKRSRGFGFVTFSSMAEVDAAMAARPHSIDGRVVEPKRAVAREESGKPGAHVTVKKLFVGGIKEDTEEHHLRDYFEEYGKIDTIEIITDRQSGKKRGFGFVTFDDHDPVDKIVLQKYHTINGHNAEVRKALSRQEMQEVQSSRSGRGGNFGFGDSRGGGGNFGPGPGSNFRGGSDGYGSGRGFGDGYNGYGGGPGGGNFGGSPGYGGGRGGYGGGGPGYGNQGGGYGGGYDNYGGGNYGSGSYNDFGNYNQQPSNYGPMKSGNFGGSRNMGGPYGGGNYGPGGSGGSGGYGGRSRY

Assays:
[1] = molecular target: HNRNPA2B1 (mouse (endogenous in RAW264.7)) (UniProt O88569); assay: co-IP; RAW264.7 cells treated with IL-4 (20 ng/ml) plus IL-10 (10 ng/ml) for 24 h (M2 macrophages); immunoprecipitation, Western blot; IgG as control; no RNase
[2] = molecular target: HNRNPA2B1 (mouse (endogenous in RAW264.7)) (UniProt O88569); assay: co-IP; RAW264.7 cells treated with IL-4 plus IL-10 for 24 h; after immunoprecipitation the samples were washed and incubated with RNase; Western blot

B1: microRNA microprocessor complex protein DGCR8 (protein, UniProt Q9EQM6 1-773)
chain: METYESPSPLPREPAGEAMMENRACPFQVLPHEQSPPPPLQTSSDAEVMDVGSGGDGQSEPPADDPFNFYGASLLSKGSFSKGRLLIDPNCSGHSPRTARHAPAVRKFSPDLKLLKDVKISVSFTESCRSKDRKVLYTGVERSTRPECGQLLSPVSGDVHACPFGGSVGNGVGLGGESADKKDEENELDQEKRVEYAVLDELEDFTDNLELDEEGTGGFTAKAIVQRDRVDEEALNFSYEDDFDNDVDALLEEGLCAPKKRRMEEKYGGDSDHPSDGETSVQPMMTKIKTVLKSRGRPPTEPLPDGWIMTFHNSGVPVYLHRESRVVTWSRPYFLGTGSIRKHDPPLSSIPCLHYKKMKDNEEREQNCDLAPSGEVSPVKPLGRSAELDFPLEEPDSMGGDSGSMDEKDPLGAEAAAGALGQVKAKVEVCKDESVDLEEFRNYLEKRFDFEQVTVKKFRTWAERRQFNREMKRKQAESERPILPANQKLITLSVQDAPTKKEFVINPNGKSEVCILHEYMQRVLKVRPVYNFFECENPSEPFGASVTIDGVTYGSGTASSKKLAKNKAARATLEILIPDFVKQTSEEKPKDSEELEYFNHISIEDSRVYELTSKAGLLSPYQILHECLKRNHGMGDTSIKFEVVPGKNQKSEYVMACGKHTVRGWCKNKRVGKQLASQKILQLLHPHVKNWGSLLRMYGRESSKMVKQETSDKSVIELQQYAKKNRPNLHILSKLQEEMKRLAAEREETRKKPKMSIVASAQPGGEPLCTVDV
- binding [1]: binds
- binding [2]: binds
